Test results as given in the supplement of paper PMC6411743.
± gives the standard deviation of the averaged measurements. Only a part is listed here, and it is no random draw. Most entries show no effect beyond the scatter of the controls.

Chains of the proteins cited; added tags and fusions are not shown. Lines headed by an entry give the natural chain unless they say otherwise; changes in a name come on top.
UniProt Q8N697: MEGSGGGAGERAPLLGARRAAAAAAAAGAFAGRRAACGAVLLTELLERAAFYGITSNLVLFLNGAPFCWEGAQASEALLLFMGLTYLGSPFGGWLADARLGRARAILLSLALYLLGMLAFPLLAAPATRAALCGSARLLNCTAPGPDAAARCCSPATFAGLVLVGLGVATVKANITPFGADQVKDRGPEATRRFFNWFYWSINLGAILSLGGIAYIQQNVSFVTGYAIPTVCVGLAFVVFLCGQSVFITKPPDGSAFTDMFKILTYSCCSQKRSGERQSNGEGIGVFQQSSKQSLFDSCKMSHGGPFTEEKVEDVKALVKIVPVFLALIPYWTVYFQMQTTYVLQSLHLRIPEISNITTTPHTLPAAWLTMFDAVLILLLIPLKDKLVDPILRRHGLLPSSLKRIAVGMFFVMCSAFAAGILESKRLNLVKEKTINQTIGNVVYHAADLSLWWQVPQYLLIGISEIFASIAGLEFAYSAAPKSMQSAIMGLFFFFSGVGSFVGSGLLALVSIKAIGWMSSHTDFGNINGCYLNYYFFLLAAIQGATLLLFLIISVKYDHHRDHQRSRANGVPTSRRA
UniProt Q8IXB1: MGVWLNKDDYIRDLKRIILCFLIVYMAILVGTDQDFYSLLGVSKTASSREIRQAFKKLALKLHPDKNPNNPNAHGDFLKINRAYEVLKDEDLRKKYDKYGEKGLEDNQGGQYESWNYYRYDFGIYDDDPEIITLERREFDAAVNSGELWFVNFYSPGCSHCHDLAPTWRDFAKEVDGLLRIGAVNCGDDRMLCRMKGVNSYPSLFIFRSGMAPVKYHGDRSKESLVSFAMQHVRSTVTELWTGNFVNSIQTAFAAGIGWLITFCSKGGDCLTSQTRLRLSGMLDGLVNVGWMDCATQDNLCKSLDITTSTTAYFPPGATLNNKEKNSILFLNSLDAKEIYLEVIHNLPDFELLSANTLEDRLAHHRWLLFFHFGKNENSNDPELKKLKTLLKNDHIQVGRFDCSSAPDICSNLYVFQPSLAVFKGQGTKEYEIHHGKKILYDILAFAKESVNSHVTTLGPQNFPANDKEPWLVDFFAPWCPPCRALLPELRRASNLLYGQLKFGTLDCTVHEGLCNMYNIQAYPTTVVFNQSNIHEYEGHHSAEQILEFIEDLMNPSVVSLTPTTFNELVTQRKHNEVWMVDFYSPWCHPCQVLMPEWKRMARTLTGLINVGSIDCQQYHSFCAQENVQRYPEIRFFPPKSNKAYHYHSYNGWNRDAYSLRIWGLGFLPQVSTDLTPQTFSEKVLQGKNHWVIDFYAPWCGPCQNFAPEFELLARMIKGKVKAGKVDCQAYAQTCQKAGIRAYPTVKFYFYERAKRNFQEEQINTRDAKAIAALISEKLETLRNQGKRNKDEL
UniProt Q8NBF6: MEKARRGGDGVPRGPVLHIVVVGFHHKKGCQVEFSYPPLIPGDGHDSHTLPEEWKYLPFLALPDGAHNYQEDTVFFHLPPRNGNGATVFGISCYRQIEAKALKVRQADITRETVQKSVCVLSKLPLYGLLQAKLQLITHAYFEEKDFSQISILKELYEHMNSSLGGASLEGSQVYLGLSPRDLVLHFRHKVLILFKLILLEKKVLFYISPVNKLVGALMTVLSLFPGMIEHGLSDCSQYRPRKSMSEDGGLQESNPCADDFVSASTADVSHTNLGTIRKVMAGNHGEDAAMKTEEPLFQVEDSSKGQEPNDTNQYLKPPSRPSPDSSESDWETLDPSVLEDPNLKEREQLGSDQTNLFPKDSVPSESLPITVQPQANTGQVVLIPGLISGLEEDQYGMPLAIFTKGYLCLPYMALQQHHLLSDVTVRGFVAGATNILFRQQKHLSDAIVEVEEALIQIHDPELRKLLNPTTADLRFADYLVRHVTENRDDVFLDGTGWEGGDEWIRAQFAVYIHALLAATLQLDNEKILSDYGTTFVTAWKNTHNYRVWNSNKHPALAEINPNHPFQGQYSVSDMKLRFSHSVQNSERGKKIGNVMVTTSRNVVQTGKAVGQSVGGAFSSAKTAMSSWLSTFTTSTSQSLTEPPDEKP
UniProt Q8NE01: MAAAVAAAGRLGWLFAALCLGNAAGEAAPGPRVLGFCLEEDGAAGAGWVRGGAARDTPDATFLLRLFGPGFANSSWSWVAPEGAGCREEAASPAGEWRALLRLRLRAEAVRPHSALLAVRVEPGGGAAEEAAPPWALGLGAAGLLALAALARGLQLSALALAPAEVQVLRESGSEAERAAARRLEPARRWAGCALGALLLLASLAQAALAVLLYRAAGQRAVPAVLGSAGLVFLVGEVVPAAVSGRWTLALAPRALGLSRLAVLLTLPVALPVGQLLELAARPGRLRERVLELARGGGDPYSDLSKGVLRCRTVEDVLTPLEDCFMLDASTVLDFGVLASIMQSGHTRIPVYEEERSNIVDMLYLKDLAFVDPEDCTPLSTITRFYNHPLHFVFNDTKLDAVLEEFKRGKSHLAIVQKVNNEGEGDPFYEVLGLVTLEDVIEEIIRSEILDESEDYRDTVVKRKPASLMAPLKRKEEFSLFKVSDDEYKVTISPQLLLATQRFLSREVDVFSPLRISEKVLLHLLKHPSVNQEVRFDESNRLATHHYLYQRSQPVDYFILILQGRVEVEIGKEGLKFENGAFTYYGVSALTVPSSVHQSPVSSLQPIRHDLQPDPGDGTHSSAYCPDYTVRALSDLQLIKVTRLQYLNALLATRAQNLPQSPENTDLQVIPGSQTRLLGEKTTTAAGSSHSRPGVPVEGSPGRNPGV
UniProt Q8NBM8: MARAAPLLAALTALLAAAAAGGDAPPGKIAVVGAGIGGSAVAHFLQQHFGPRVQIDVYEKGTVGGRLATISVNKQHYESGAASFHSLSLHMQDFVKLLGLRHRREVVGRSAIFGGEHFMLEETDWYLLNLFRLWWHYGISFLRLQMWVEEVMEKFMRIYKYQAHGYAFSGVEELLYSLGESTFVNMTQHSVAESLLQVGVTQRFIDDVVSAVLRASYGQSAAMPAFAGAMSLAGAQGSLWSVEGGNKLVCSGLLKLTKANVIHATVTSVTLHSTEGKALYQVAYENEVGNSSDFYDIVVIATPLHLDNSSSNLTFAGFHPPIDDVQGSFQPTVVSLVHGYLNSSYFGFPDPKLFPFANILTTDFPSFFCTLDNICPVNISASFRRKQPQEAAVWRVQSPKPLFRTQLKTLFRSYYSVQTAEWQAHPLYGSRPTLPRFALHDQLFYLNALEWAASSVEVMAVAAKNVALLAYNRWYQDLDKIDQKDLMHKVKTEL
UniProt Q8NCN4: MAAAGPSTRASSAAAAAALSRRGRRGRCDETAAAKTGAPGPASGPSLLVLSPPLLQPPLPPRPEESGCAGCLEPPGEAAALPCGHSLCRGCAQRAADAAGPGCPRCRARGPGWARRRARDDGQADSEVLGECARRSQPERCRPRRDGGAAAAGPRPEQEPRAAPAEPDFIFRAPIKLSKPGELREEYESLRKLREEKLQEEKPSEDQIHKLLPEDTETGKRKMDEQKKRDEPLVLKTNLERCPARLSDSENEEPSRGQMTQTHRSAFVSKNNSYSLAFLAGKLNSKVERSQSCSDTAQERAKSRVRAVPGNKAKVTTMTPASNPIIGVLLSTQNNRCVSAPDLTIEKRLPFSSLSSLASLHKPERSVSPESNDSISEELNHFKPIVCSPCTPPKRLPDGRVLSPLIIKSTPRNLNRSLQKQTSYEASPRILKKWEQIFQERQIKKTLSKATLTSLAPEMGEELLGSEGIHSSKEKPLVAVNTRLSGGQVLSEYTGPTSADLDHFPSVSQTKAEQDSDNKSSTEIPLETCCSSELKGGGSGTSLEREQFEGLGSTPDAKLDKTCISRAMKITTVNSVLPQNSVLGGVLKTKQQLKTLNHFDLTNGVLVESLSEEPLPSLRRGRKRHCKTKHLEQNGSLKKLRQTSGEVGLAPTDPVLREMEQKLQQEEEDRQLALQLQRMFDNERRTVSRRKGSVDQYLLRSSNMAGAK
UniProt Q8ND25: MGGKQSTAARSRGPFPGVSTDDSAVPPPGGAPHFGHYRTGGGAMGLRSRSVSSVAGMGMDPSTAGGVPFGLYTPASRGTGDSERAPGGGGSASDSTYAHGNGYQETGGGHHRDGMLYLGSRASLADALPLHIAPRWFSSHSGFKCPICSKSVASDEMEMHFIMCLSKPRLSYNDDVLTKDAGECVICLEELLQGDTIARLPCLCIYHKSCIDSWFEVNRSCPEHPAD
UniProt Q8N4V1: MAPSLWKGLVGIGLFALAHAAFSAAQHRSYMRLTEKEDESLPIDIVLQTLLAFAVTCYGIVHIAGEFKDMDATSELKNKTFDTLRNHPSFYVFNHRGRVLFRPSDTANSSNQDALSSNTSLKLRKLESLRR
UniProt Q8IZ73: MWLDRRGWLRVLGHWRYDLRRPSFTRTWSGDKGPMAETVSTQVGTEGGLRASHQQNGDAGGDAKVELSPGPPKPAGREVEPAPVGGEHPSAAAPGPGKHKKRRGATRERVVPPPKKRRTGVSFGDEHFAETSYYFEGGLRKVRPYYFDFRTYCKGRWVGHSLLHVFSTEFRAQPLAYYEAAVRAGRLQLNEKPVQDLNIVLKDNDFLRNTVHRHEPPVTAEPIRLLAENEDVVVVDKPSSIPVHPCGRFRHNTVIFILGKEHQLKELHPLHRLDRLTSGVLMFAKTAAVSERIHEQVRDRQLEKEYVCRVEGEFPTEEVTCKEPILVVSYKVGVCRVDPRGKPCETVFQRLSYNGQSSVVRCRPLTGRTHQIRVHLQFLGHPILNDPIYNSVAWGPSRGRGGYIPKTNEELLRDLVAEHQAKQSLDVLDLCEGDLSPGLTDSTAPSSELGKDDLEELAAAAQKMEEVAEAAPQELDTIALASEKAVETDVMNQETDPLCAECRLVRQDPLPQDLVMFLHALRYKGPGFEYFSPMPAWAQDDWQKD
UniProt Q8IXQ3: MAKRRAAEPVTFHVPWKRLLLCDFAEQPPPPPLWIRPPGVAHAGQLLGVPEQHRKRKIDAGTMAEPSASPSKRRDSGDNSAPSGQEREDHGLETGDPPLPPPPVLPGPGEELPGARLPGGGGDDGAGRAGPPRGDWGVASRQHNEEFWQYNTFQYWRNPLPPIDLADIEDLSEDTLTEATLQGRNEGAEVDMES
UniProt Q8IWT6: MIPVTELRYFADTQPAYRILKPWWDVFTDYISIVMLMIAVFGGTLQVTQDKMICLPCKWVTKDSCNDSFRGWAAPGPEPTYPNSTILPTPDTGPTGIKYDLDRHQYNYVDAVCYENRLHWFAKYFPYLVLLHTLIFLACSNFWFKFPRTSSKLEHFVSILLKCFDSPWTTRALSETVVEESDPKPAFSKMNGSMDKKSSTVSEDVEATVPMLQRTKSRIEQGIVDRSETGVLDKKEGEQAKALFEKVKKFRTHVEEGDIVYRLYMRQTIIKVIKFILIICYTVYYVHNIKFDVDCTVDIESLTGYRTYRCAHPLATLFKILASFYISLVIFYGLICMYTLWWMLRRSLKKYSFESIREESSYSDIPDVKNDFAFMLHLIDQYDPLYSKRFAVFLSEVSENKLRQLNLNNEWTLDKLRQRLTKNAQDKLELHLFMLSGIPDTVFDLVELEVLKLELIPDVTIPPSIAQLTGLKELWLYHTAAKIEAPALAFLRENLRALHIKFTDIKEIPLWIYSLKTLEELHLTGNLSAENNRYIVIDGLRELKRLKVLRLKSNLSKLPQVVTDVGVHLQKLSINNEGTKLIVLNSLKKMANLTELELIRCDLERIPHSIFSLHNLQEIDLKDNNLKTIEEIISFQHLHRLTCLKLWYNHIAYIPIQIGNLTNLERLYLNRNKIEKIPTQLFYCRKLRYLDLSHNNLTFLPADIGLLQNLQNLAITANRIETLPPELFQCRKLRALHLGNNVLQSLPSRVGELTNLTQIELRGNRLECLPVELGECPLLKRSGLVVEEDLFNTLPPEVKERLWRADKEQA
UniProt Q8N511: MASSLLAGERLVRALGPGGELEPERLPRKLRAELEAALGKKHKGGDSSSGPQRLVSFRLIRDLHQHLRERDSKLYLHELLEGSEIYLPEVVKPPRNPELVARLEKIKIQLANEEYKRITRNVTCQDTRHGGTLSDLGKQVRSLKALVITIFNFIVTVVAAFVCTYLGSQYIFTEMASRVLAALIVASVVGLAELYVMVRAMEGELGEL
UniProt Q8TA86: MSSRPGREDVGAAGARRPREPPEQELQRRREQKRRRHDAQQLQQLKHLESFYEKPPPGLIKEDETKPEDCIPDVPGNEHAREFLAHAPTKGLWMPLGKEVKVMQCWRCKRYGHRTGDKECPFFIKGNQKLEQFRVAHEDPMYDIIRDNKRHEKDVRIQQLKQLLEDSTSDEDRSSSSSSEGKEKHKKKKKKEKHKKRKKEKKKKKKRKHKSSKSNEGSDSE
UniProt Q8TAA5: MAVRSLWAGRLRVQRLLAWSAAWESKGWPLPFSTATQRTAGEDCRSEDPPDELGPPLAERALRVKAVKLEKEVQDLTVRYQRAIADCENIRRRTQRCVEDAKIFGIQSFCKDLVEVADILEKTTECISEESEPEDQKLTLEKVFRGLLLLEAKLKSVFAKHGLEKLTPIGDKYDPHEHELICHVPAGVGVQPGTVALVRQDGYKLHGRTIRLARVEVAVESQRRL

Compound: Nc1ncnc2c1ncn2[C@@H]1O[C@H](COP(=O)(O)OP(=O)(O)OP(=O)(O)O)[C@@H](O)[C@H]1O [adenosine triphosphate]
Assay: NP40-soluble protein abundance relative to vehicle (solubility fold change) (ratio); higher = more soluble protein in presence of ATP
Outline: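 Each value is a fold change relative to the detergent-processed vehicle, calculated per replicate from vsn-normalised intensities. Jurkat crude lysate received eight concentrations (0.1 to 10 mM) for 10 min at room temperature and 3 min at 37 °C, then was solubilised in 0.8% NP40 with benzonase (60 min, 4 °C). The ultracentrifuged supernatant was TMT-labelled and run by LC-MS/MS in three independent experiments.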

Target	NP40-soluble protein abundance (concentration: 0.1mM)	NP40-soluble protein abundance (concentration: 0.5mM)
SLC15A4 (UniProt Q8N697)	0.983 ± 0.055	0.953 ± 0.12
CKAP2L (UniProt Q8IYA6)	0.931 ± 0.066	0.986 ± 0.055
UniProt Q8NB15-2	1.07 ± 0.043	1.02 ± 0.034
UniProt Q8IXB1 and related entries	1.03 ± 0.092	0.998 ± 0.066
AVL9 (UniProt Q8NBF6)	1.04 ± 0.023	1.01 ± 0.022
CNNM3 (UniProt Q8NE01)	1.08 ± 0.058	1.02 ± 0.057
UniProt Q8N490 and related entries	1.01 ± 0.15	1.04 ± 0.12
UniProt Q8NFD5 and related entries	0.999 ± 0.012	1.02 ± 0.072
GADD45GIP1 (UniProt Q8TAE8)	0.946 ± 0.22	0.829 ± 0.17
PCYOX1L (UniProt Q8NBM8)	0.966 ± 0.056	0.969 ± 0.025
RNF169 (UniProt Q8NCN4)	1.36 ± 0.2	1.06 ± 0.057
VPS52 (UniProt Q8N1B4)	1.06 ± 0.066	1.03 ± 0.054
UniProt Q8IZP0-3|Q8IZP0-5|Q8IZP0-9|A0A0A0MRT6|B6VEX4 and related entries	0.949 ± 0.062	0.934 ± 0.035
UniProt Q8ND25 and related entries	0.967 ± 0.0068	0.986 ± 0.088
UniProt Q8N4V1 and related entries	0.889 ± 0.097	0.842 ± 0.11
RPUSD2 (UniProt Q8IZ73)	1.07 ± 0.043	1.05 ± 0.052
C9orf40 (UniProt Q8IXQ3)	0.975 ± 0.094	0.961 ± 0.089
LRRC8A (UniProt Q8IWT6)	1 ± 0.054	0.999 ± 0.02
TMEM199 (UniProt Q8N511)	0.855 ± 0.082	0.844 ± 0.096
RP9 (UniProt Q8TA86)	0.951 ± 0.071	0.929 ± 0.13
UniProt Q8TAA5 and related entries	0.988 ± 0.045	0.889 ± 0.081

Reformatted comma-delimited: part of the list above
Target,NP40-soluble protein abundance (concentration: 0.1mM),NP40-soluble protein abundance (concentration: 0.5mM)
AVL9 (UniProt Q8NBF6),1.04 ± 0.023,1.01 ± 0.022
CNNM3 (UniProt Q8NE01),1.08 ± 0.058,1.02 ± 0.057
